{"source": "PubChem BioAssay AID493246 – Drosophila RNAi Screening Center – 2011", "aim": "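Identify essential fly genes by loss of cell viability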 (primary screen)", "system": "Drosophila Kc and S2R+ cells", "reagents": "long dsRNA against Drosophila genes", "read-out": "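Raw, unnormalised count of remaining cells in each well; per-plate z-scores of cell number underlie the calls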", "scale": "Kc cell number and S2R+ cell number: higher = more cells remaining", "hit rule": "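Active when the per-plate z-score of cell number is 3 or more in the direction of fewer cells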", "note": "The screen tested about 21,000 reagents; this is an unselected part of those with a known target gene and a result. Over the whole deposit, 429 (2%) were called active. 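Values are raw and not normalised between plates; calls rest on per-plate z-scores that were not deposited.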 Unmarked entries are inactive. Not given: the amount of reagent, the time to read-out."}
{"predicted target":"Alms1a (GeneID 31393)","dsRNA":"DRSC18558","Kc cell number, rep 1":1.44e6,"Kc cell number, rep 2":1.42e6,"S2R+ cell number, rep 1":1.03e6,"S2R+ cell number, rep 2":1.10e6}
{"predicted target":"Cyp12b2 (GeneID 37163)","dsRNA":"DRSC07364","Kc cell number, rep 1":1.69e6,"Kc cell number, rep 2":1.61e6,"S2R+ cell number, rep 1":1.31e6,"S2R+ cell number, rep 2":1.54e6}
{"predicted target":"Muc96D (GeneID 318737)","dsRNA":"DRSC13709","Kc cell number, rep 1":1.32e6,"Kc cell number, rep 2":1.32e6,"S2R+ cell number, rep 1":1.02e6,"S2R+ cell number, rep 2":1.13e6}
{"predicted target":"Zyx (GeneID 317824)","dsRNA":"DRSC17186","Kc cell number, rep 1":1.12e6,"Kc cell number, rep 2":1.37e6,"S2R+ cell number, rep 1":1.06e6,"S2R+ cell number, rep 2":1.02e6}
{"predicted target":"CG3149 (GeneID 31489)","dsRNA":"DRSC17732","Kc cell number, rep 1":6.25e5,"S2R+ cell number, rep 1":8.56e5}
{"predicted target":"Seipin (GeneID 31245)","dsRNA":"DRSC18654","Kc cell number, rep 1":1.59e6,"Kc cell number, rep 2":1.56e6,"S2R+ cell number, rep 1":1.01e6,"S2R+ cell number, rep 2":1.09e6}
{"predicted target":"Lsp1alpha (GeneID 32199)","dsRNA":"DRSC20258","Kc cell number, rep 1":1.66e6,"Kc cell number, rep 2":1.46e6,"S2R+ cell number, rep 1":1.17e6,"S2R+ cell number, rep 2":1.27e6}
{"predicted target":"BORCS5 (GeneID 32145)","dsRNA":"DRSC19427","Kc cell number, rep 1":6.01e5,"S2R+ cell number, rep 1":8.90e5}
{"predicted target":"tsl (GeneID 42564)","dsRNA":"DRSC17090","Kc cell number, rep 1":1.51e6,"Kc cell number, rep 2":1.53e6,"S2R+ cell number, rep 1":1.18e6,"S2R+ cell number, rep 2":1.25e6}
{"predicted target":"Osi15 (GeneID 40771)","dsRNA":"DRSC12178","Kc cell number, rep 1":1.75e6,"Kc cell number, rep 2":1.87e6,"S2R+ cell number, rep 1":1.30e6,"S2R+ cell number, rep 2":1.44e6}
{"predicted target":"CR10032 (GeneID 40877)","dsRNA":"DRSC12499","Kc cell number, rep 1":1.63e6,"Kc cell number, rep 2":1.76e6,"S2R+ cell number, rep 1":1.31e6,"S2R+ cell number, rep 2":1.44e6}
{"predicted target":"Ir85a (GeneID 41052)","dsRNA":"DRSC14382","Kc cell number, rep 1":1.35e6,"Kc cell number, rep 2":1.50e6,"S2R+ cell number, rep 1":1.28e6,"S2R+ cell number, rep 2":1.36e6}
{"predicted target":"Ctu2 (GeneID 35234)","dsRNA":"DRSC02024","Kc cell number, rep 1":1.45e6,"Kc cell number, rep 2":1.47e6,"S2R+ cell number, rep 1":1.34e6,"S2R+ cell number, rep 2":1.42e6}
{"predicted target":"twf (GeneID 41719)","dsRNA":"DRSC15466","Kc cell number, rep 1":1.50e6,"Kc cell number, rep 2":1.56e6,"S2R+ cell number, rep 1":1.30e6,"S2R+ cell number, rep 2":1.30e6}
{"predicted target":"ppk15 (GeneID 43188)","dsRNA":"DRSC14733","Kc cell number, rep 1":1.78e6,"Kc cell number, rep 2":1.82e6,"S2R+ cell number, rep 1":9.17e5,"S2R+ cell number, rep 2":9.82e5}
{"predicted target":"CG2865 (GeneID 31217)","dsRNA":"DRSC18527","Kc cell number, rep 1":5.06e5,"S2R+ cell number, rep 1":9.00e5}
{"predicted target":"CG11309 (GeneID 40356)","dsRNA":"DRSC11650","Kc cell number, rep 1":1.64e6,"Kc cell number, rep 2":1.62e6,"S2R+ cell number, rep 1":1.43e6,"S2R+ cell number, rep 2":1.47e6}
{"predicted target":"Lerp (GeneID 43223)","dsRNA":"DRSC14750","Kc cell number, rep 1":1.50e6,"Kc cell number, rep 2":1.51e6,"S2R+ cell number, rep 1":9.39e5,"S2R+ cell number, rep 2":1.05e6}
{"predicted target":"Lerp (GeneID 43223)","dsRNA":"DRSC14751","Kc cell number, rep 1":1.50e6,"Kc cell number, rep 2":1.52e6,"S2R+ cell number, rep 1":1.02e6,"S2R+ cell number, rep 2":1.12e6}
{"predicted target":"Lerp (GeneID 43223)","dsRNA":"DRSC16030","Kc cell number, rep 1":1.44e6,"Kc cell number, rep 2":1.43e6,"S2R+ cell number, rep 1":9.71e5,"S2R+ cell number, rep 2":1.06e6}
{"predicted target":"Lerp (GeneID 43223)","dsRNA":"DRSC16031","Kc cell number, rep 1":1.50e6,"Kc cell number, rep 2":1.51e6,"S2R+ cell number, rep 1":9.62e5,"S2R+ cell number, rep 2":1.07e6}
{"predicted target":"CG32198 (GeneID 317909)","dsRNA":"DRSC09553","Kc cell number, rep 1":1.42e6,"Kc cell number, rep 2":1.56e6,"S2R+ cell number, rep 1":1.17e6,"S2R+ cell number, rep 2":1.31e6}
{"predicted target":"CG31087 (GeneID 43062)","dsRNA":"DRSC14253","Kc cell number, rep 1":2.00e6,"Kc cell number, rep 2":2.07e6,"S2R+ cell number, rep 1":1.09e6,"S2R+ cell number, rep 2":1.18e6}
{"predicted target":"Rad23 (GeneID 43785)","dsRNA":"DRSC17167","Kc cell number, rep 1":4.92e5,"S2R+ cell number, rep 1":8.15e5}
{"predicted target":"GstT3 (GeneID 33047)","dsRNA":"DRSC20541","Kc cell number, rep 1":1.45e6,"Kc cell number, rep 2":1.46e6,"S2R+ cell number, rep 1":1.05e6,"S2R+ cell number, rep 2":1.14e6}
{"predicted target":"CG13231 (GeneID 36169)","dsRNA":"DRSC06351","Kc cell number, rep 1":1.57e6,"Kc cell number, rep 2":1.65e6,"S2R+ cell number, rep 1":1.23e6,"S2R+ cell number, rep 2":1.33e6}
{"predicted target":"Mocs1 (GeneID 39238)","dsRNA":"DRSC11225","Kc cell number, rep 1":1.42e6,"Kc cell number, rep 2":1.41e6,"S2R+ cell number, rep 1":1.27e6,"S2R+ cell number, rep 2":1.31e6}

Copied from above for reference:
{"predicted target":"ppk15 (GeneID 43188)","dsRNA":"DRSC14733","Kc cell number, rep 1":1.78e6,"Kc cell number, rep 2":1.82e6,"S2R+ cell number, rep 1":9.17e5,"S2R+ cell number, rep 2":9.82e5}
{"predicted target":"CG2865 (GeneID 31217)","dsRNA":"DRSC18527","Kc cell number, rep 1":5.06e5,"S2R+ cell number, rep 1":9.00e5}
